From paper PMC9492413 come the findings set out here.

Amino acid sequences for entries named in this document (tags omitted).
UniProt Q969H0: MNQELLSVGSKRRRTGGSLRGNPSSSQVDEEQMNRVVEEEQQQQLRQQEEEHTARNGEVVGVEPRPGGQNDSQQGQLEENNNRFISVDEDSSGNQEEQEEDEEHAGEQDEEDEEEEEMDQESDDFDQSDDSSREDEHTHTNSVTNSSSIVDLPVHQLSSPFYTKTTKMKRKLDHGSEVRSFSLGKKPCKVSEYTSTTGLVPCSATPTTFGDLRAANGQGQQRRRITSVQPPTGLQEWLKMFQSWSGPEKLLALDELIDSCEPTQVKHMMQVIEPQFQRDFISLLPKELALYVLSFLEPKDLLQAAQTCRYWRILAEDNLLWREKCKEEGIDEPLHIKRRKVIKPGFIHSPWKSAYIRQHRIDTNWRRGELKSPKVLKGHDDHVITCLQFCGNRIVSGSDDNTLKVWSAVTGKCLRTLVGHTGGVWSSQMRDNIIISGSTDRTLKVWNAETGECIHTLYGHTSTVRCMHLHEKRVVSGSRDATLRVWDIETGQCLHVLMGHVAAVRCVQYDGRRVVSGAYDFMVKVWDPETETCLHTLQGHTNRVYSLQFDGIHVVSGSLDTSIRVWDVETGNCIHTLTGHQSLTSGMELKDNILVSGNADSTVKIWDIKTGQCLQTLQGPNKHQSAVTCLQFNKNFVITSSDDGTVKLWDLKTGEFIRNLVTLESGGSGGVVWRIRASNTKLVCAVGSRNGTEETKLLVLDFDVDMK
UniProt O96019: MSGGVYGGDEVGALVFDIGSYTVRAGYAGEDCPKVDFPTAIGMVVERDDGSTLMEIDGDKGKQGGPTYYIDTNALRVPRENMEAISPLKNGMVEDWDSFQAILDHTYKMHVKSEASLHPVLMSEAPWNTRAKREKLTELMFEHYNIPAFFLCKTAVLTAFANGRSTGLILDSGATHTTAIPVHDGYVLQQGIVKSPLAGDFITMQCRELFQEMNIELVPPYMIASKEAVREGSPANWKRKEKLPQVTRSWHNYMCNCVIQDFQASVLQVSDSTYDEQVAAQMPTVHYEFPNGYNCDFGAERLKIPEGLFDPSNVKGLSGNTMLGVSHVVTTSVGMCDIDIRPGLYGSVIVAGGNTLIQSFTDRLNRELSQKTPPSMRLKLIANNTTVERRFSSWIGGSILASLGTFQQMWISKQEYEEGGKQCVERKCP

These are yes or no findings as the source states them, for the method shown. In cells and extracts the contact can be indirect. These calls come from enrichment with a bait or labelling near it, and not all partners need be listed.

This assay addresses Flag-tagged FBXW7 (F-box and WD repeat domain-containing 7) (UniProt Q969H0). Description: affinity purification with mass spectrometry; cell extracts from MHCC-97 cells with Flag-FBXW7 expression immunopurified on an anti-Flag affinity column, eluted with Flag peptides; eluates analysed by mass spectrometry.

“Actin-like 6A (ACTL6A) (from UniProt O96019 1-429)”: the binding entry was “binds”.
